Laboratory results published in paper PMC8764521.
Results are given in words; binding and its absence hold for the method and conditions named. Binding seen in cells or lysates may run through a third protein. Some results given as binding are weak or reduced against the parent protein; the word gives no strength.

By UniProt entry, the sequences of proteins in these tests, tags left out.
UniProt P04543: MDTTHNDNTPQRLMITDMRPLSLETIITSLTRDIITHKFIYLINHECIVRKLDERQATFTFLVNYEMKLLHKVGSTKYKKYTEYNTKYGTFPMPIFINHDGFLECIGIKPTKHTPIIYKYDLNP
UniProt Q14457: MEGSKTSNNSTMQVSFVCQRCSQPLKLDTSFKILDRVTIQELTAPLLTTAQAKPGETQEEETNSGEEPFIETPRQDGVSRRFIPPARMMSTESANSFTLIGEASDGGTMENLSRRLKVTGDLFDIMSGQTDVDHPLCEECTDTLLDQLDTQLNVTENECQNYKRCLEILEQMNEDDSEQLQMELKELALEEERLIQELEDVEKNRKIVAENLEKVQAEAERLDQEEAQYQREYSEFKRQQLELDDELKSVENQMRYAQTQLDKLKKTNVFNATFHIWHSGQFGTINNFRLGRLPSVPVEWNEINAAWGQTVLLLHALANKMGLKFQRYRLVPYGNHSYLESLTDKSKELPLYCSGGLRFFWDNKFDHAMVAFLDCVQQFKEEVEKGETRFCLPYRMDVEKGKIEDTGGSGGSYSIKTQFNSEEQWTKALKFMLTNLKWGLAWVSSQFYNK

How the values were obtained:
[1] = molecular target: HA-tagged RSV NS2 protein (human respiratory syncytial virus) (UniProt P04543); assay: co-IP; HEp-2 cells expressing HA-NS2; HA-NS2 IP with anti-HA antibody, immunoblot with anti-Beclin1
[2] = molecular target: HA-tagged RSV NS2 protein (human respiratory syncytial virus) (UniProt P04543); assay: co-IP; A549 cells expressing HA-NS2; HA-NS2 IP with anti-HA antibody, immunoblot with anti-Beclin1
[3] = molecular target: endogenous Beclin1 (human (endogenous in A549 and HEp-2)) (UniProt Q14457); assay: co-IP; HEp-2 cells expressing HA-NS2; endogenous Beclin1 IP with anti-Beclin1 antibody, immunoblot with anti-HA
[4] = molecular target: Flag-tagged Beclin1 (human) (UniProt Q14457); assay: co-IP; HEK293 cells coexpressing Flag-Beclin1 and HA-NS2 or HA-NS1; IP with anti-Flag antibody on protein G agarose, immunoblot with anti-HA; lysis in PBS plus Triton X-100, overnight at 4°C
[5] = molecular target: endogenous Beclin1 (human (endogenous in A549 and HEp-2)) (UniProt Q14457); assay: co-IP; A549 cells expressing HA-NS2; endogenous Beclin1 IP with anti-Beclin1 antibody, immunoblot with anti-HA (also done in cells treated with IFN-β 500 U/mL, Fig. 7B)

endogenous Beclin1 (from UniProt Q14457 1-450)
binding [1]: binds | binding [2]: binds

HA-tagged RSV NS2 protein (from UniProt P04543 1-124)
binding [3]: binds | binding [4]: binds | binding [5]: binds
